PubChem BioAssay AID504774 – Drosophila RNAi Screening Center, 2011

Purpose: 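Fly genes whose loss alters survival after alkylation damage to DNA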 (primary screen)
Cell system: Drosophila Kc167 cells
Reagents: long dsRNA against Drosophila genes, about 0.25 µg dsRNA per well
Time to read-out: about 6 days: 3 days knock-down, then 3 days with or without MMS
Conditions: methyl methanesulphonate 0.004% (w/v) for 3 days after knock-down
Read-out: 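ATP-dependent luminescence as a measure of live cells in MMS-exposed wells, quantile normalised within each plate, with replicate values also given as a mean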
Reading the numbers: mean viability with MMS: higher = more surviving cells after MMS
The screen tested about 23,000 reagents; this is an unselected part of those with a known target gene and a result. 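Values are quantile-normalised luminescence on an arbitrary scale; higher means more cells surviving MMS.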 Further read-outs or replicates are left out here. Reagent sequences are not shown.

predicted target	amplicon	mean viability with MMS
eIF3h (eukaryotic translation initiation factor 3 subunit h)	DRSC01995	2.90e6
Nrk (Neurospecific receptor kinase)	DRSC07480	3.63e6
CG5089	DRSC06914	3.54e6
Sema2a (Semaphorin 2a)	DRSC07551	3.51e6
CG3713	DRSC18648	3.66e6
BomS3 (Bomanin Short 3)	DRSC21458	3.50e6
CG6661	DRSC10687	3.51e6
CG7408	DRSC10841	3.59e6
mRpL10 (mitochondrial ribosomal protein L10)	DRSC00312	3.19e6
Sox21b	DRSC10025	3.78e6
Sox21b	DRSC10634	3.18e6
Sox21b	DRSC22788	2.66e6
Sox21b	DRSC23005	3.43e6
mat (materazzi)	DRSC08376	3.51e6
mat (materazzi)	DRSC22841	3.46e6
Syt7 (Synaptotagmin 7)	DRSC17130	3.72e6
Syt7 (Synaptotagmin 7)	DRSC17159	3.55e6
nito (spenito)	DRSC05943	3.47e6
Gr32a (Gustatory receptor 32a)	DRSC02400	3.59e6
CG15450	DRSC20522	3.51e6
Acox57D-p (acyl-Coenzyme A oxidase at 57D proximal)	DRSC04560	3.53e6
CG8420	DRSC16418	3.42e6
CG9010	DRSC07320	3.52e6
CG6171	DRSC15982	3.43e6
CG43980	DRSC11500	3.49e6
CG43980	DRSC11646	3.83e6
CG15021	DRSC08475	3.52e6
CR31824 (pseudo)	DRSC01517	3.47e6

Look-ups from the entries so far:
Syt7 (Synaptotagmin 7) [DRSC17159], mean viability with MMS: 3.55e6
Entry for Syt7 (Synaptotagmin 7) [DRSC17130] in “mean viability with MMS”: 3.72e6
